Assay results published in publication PMC12313917.
These are yes or no findings as the source states them, for the method shown. Binding seen in cells or lysates may run through a third protein. Some entries that bind do so weakly or less than the wild type. Tags and fused reporters may be left off the sequences shown.

Chains of the proteins cited; added tags and fusions are not shown.
UniProt P53994: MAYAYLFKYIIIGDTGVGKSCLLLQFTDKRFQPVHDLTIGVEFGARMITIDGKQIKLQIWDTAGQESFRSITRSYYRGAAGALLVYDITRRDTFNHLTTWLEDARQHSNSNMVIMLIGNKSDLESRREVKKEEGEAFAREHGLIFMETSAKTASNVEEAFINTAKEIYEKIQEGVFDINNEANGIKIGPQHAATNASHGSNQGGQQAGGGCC

Assays:
[1] = target: T1, STMN1-HA (mouse) (UniProt P54227); assay: co-IP; co-expression in WT E14 mESCs for 48 hrs; IP with cross-linked anti-HA magnetic beads against mouse IgG control, over-night; WB with anti-FLAG and anti-HA
T1 sequence: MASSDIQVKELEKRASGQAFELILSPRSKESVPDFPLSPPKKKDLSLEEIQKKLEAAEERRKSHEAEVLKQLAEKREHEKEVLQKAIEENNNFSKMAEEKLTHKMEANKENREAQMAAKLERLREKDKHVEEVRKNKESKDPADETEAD

[2] = target: HA-RAB2a (UniProt P53994); assay: as above

- binding [1]: binds
- binding [2]: binds
B1: METTL9-CatD-FLAG (enzyme, UniProt Q9EPL4 19-318)
chain: RRMWTLRSPLSRSLYVNMTSGPGGPAAAAGGGKDTHQWYVCNREKLCESLQSVFVQSYLDQGTQIFLNNSIEKSGWLFIQLYHSFVSSVFSLFMSRTSINGLLGRGSMFVFSPDQFQRLLRINPDWKTHRLLKLRAGDGEVTKIMSPHFEEIYATELSETMIWQLQKKKYRVLGINEWQNTGFQYDVISCLNLLDRCDQPLTLLKDIRSVLEPTQGRVILALVLPFHPYVENVGGKWEKPSEILEIKGQNWEEQVNSLPEVFRKAGFVVEAFTRLPYLCEGDMYNDYYVLDDAVFVLRPV
